Among the data in PubChem BioAssay AID2685 (National Center for Advancing Translational Sciences (NCATS), 2010) are cell number change and AC50 values, retold here.

This experiment is described as follows: qHTS Assay for Lipid Storage Modulators in Drosophila S3 Cells.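 As to cell number change: cells counted by Cell Tracker Red CMTPX staining in the red channel.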 Conditions: BODIPY lipid droplet fluorescence, 18-24 h; for cell number change: measured here: cell count max response, cells fed with added oleic acid. In a few lines: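 Laser-scanning cytometry quantifies lipid droplet accumulation (500–530 nm total intensity; droplet/cell object ratio) in oleic acid-fed (400 uM added) Drosophila S3 cells treated with a concentration series. 20 uM Triacsin C defined 100% inhibition.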
On the technique in general: Quantitative high-throughput screening tests each substance at several concentrations.

The mark [1] stands for this setting: measured here: lipid fluorescence (Fed channel) AC50, cells fed with added oleic acid.
Setting [2] is: measured here: cell number channel AC50, cells fed with added oleic acid.

This is one part of the list. These are further read-outs of the screen, such as a control signal, another cell line or another target. No call is given for them. The list favours compounds with an active or inconclusive main result. Potencies come from curve fits of mixed quality, noted in brackets.

For the compound `CCCCCNC(=O)CC1Nc2c3ccccc3nc(=S)n2C1=O` (centres undefined), the cell number change is 14.4%. Further, under setting [1], the AC50 (as a rule, the midpoint of the concentration-response curve, whichever way the signal moves) is 0.651 µM [falling, full curve, poor fit].

For the compound `Cc1cc2ccccc2n2c(SCC(=O)Nc3ccc(S(=O)(=O)N4CCC(C)CC4)cc3)nnc12`, the cell number change turned out to be 9.7%. Further, the AC50 under setting [1] is 14.6 µM [rising, single point].

As for `Oc1cc(O)c2c(c1)O[C@H](c1ccc(O)c(O)c1)[C@H](O)C2`, the cell number change came out at 1.5%.

Regarding `COc1ccc2oc(C(=O)Nc3ccccc3N3CCOCC3)c(C)c2c1`, the cell number change is -16.7%. Also, the half-maximal activity concentration (AC50) under setting [2] is 0.00461 µM [falling, full curve, poor fit].

As for `Cc1ccc(-c2c3c(=O)n(C)c(=O)n(C)c3cn2-c2ccccc2O)cc1`, the cell number change was 66.9%. For the same compound, under setting [2], the concentration at half-maximal activity (AC50) was 29.1 µM [rising, single point].

In the case of `CCN1CCN(c2oc(COc3ccc(Cl)cc3)nc2C#N)CC1`, the cell number change was 10.5%. The half-maximal activity concentration (AC50) under setting [1] is 0.82 µM [falling, single point].

Take `CC(=O)Nc1sc(C)c(C)c1C(=O)OCC(=O)N(CC(C)C)c1c(N)n(Cc2ccccc2)c(=O)[nH]c1=O`: the cell number change is 11%. Also, the AC50 under setting [2] is 0.58 µM [rising, full curve].

As for `O=C(Cc1ccccc1)N1CCN(c2ccccc2F)CC1`, the cell number change was -4.23%.

As for `O=C(OCC(=O)N1CCCC1)c1ccc(Cl)nc1`, the cell number change turned out to be 3.76%. Further, under setting [1], the concentration at half-maximal activity (AC50) was 0.92 µM [falling, full curve, poor fit].

On to `COc1cc2c(=O)nc3n(c2cc1OC)C(c1ccccc1)N=C(N)N3` (centres undefined), for which the cell number change is -129%. Also, under setting [2], the half-maximal activity concentration (AC50) is 2.06 µM [falling, partial curve].

For `O=C(C1CCCN(S(=O)(=O)Cc2ccccc2)C1)N1CCc2ccccc21` (centres undefined), the cell number change is 64.5%. For the same compound, under setting [2], the concentration at half-maximal activity (AC50) is 8.2 µM [rising, partial curve, poor fit]. Also, the half-maximal activity concentration (AC50) under setting [1] was 3.26 µM [rising, partial curve].

On to `COc1cc(/C=N/Nc2snc(SC)c2C#N)cc(OC)c1OC`, for which the cell number change was 51%. In addition, the half-maximal activity concentration (AC50) under setting [2] is 16.4 µM [rising, single point]. In addition, the AC50 under setting [1] is 25.9 µM [rising, single point].

`COc1ccc(-c2cn3c4c(sc3n2)CCCC4)cc1`: the cell number change came to 119%. Moreover, the AC50 under setting [2] is 16.4 µM [rising, partial curve]. Besides, the AC50 under setting [1] is 6.51 µM [rising, single point].

`CCOC(=O)C(CC)n1nc(C)n2c(cc3occc32)c1=O` (centres undefined): the half-maximal activity concentration (AC50) under setting [2] is 0.184 µM [rising, full curve, poor fit].

Consider `Oc1ccccc1C(=S)N1CCCCCC1`, for which the cell number change was 22.7%.

Consider `Cc1ccc(OCC(=O)NCCO)cc1C`, for which the cell number change was -2.14%.

As for `COc1cccc(C(=O)/C=C/Nc2cc(C)ccc2O)c1`, the cell number change is -68.2%. Besides, the AC50 under setting [2] is 32.6 µM [falling, single point]. In addition, the half-maximal activity concentration (AC50) under setting [1] was 2.31 µM [falling, partial curve, poor fit].

Take `O=C(CCc1ccccc1)N1CCCC(Nc2ccc(F)cc2)C1` (centres undefined): the cell number change is -7.43%.

With `Cn1cc(C(=O)N/N=C/C(Br)=C\c2ccccc2)ccc1=O`, the cell number change was -5.17%. The half-maximal activity concentration (AC50) under setting [1] is 29.1 µM [falling, single point].

Consider `Cc1ccc(O)c(C(=O)c2cnc3onc(-c4ccc(F)cc4)c3c2)c1`, for which the cell number change was -0.402%.

With `CC(C(=O)Nc1ccc(S(=O)(=O)N2CCCC2)cc1)N1CCN(C(=O)c2ccco2)CC1` (centres undefined), the AC50 by setting is: under setting [2], 6.51 µM [rising, single point]; under setting [1], 6.51 µM [rising, single point].

Consider `Cc1ccc(OCCOC(=O)c2cc(S(=O)(=O)N3CCCCC3)ccc2N2CCOCC2)cc1`, for which, under setting [1], the AC50 was 6.51 µM [falling, partial curve].

`Cc1cc(OCC(=O)Nc2ccc(CCO)cc2)c2c(C)c(C)c(=O)oc2c1`: the cell number change is -14.5%.

With `CCOC(=O)CNC(=O)CSc1nnnn1-c1cc(C)ccc1C`, the cell number change came out at 48.9%. Moreover, under setting [2], the AC50 is 29.1 µM [rising, single point].

`COc1ccc(C(=O)CSc2nc(SC)ns2)cc1OC`: the cell number change was -8.16%. The concentration at half-maximal activity (AC50) under setting [1] was 4.11 µM [rising, partial curve].

In the case of `Cc1cc(C)nc(N2CCCC(C(=O)NCc3cccc(C(F)(F)F)c3)C2)n1` (centres undefined), the cell number change is -21.6%. In addition, the AC50 under setting [2] is 4.11 µM [falling, full curve, poor fit]. Also, the AC50 under setting [1] is 1.84 µM [rising, single point].

Take `COc1ccc(C(=O)NNC(=O)c2ccccc2[N+](=O)[O-])cc1Br`: the cell number change was found to be 11.3%. In addition, under setting [1], the AC50 is 18.4 µM [rising, single point].

On to `Cc1ccc(C(c2sc3nc(C)nn3c2O)N2CCN(c3ccc(F)cc3)CC2)cc1` (centres undefined), for which the cell number change was -12.6%. For the same compound, under setting [1], the AC50 was 0.092 µM [falling, full curve, poor fit].

Regarding `COc1ccc(OC)c(-c2cc(C3CCN(C(=O)OC(C)(C)C)CC3)[nH]n2)c1`, the cell number change is -49.7%. For the same compound, the half-maximal activity concentration (AC50) under setting [2] was 18.4 µM [falling, single point]. Under setting [1], the concentration at half-maximal activity (AC50) was 29.1 µM [falling, single point].

On to `COc1ccc(NC2CC(=O)N(c3cc([N+](=O)[O-])ccc3C)C2=O)cc1` (centres undefined), for which the cell number change is -14.3%. Besides, the AC50 under setting [2] was 0.116 µM [falling, full curve, poor fit]. Besides, the AC50 under setting [1] is 3.26 µM [falling, full curve, poor fit].

For the compound `COc1ccc(N(C)S(=O)(=O)c2cccc(C(=O)NCC3CCCO3)c2)cc1` (centres undefined), the cell number change came out at 12.8%. Also, under setting [1], the AC50 was 6.51 µM [rising, single point].

For the compound `CSc1ccccc1NC(=O)C1=CC(c2ccc(C)cc2)=NS(=O)(=O)N1C`, the cell number change is -16.7%. In addition, the AC50 under setting [2] was 2.59 µM [falling, partial curve]. Moreover, under setting [1], the concentration at half-maximal activity (AC50) is 1.3 µM [falling, partial curve].

Regarding `Cn1c(=O)[nH]c(=O)c2c1nc(SCCC(=O)O)n2Cc1cccc(Br)c1`, the cell number change was found to be 4.67%.

For `CC(=O)c1ccc(NC(=O)CSCCO)cc1`, the cell number change was -28.9%. Under setting [1], the AC50 was 25.9 µM [falling, single point].

In the case of `COC(=O)c1ccccc1S(=O)(=O)N1CCC(C(=O)NC2=NCCS2)CC1`, the cell number change is 1.04%. In addition, the AC50 under setting [1] was 9.2 µM [rising, partial curve, poor fit].

With `CSc1nsc(SC)c1NC(=O)N1CCCC1`, the cell number change is -0.297%.

Regarding `COc1cccc(N(CC(=O)N2CCN(C)CC2)S(=O)(=O)c2ccccc2)c1`, the cell number change is -14.5%. Besides, the half-maximal activity concentration (AC50) under setting [1] was 6.51 µM [falling, single point].

As for `CC(C)(C)c1ccc(-c2nc(C#N)c(NCc3cccnc3)o2)cc1`, the cell number change was 59.7%. Also, the concentration at half-maximal activity (AC50) under setting [2] was 3.26 µM [rising, full curve]. The AC50 under setting [1] was 29.1 µM [falling, single point].
